## Primary screen of a compound library

By UniProt entry, the sequences of proteins in these tests, tags left out. Residues count along the entry.
UniProt P9WPC5, whole entry: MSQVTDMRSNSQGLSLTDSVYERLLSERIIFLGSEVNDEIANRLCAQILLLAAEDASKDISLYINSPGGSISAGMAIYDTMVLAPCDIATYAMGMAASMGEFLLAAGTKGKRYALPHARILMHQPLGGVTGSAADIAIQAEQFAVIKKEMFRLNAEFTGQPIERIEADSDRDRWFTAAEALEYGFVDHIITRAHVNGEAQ
UniProt P9WPC3, whole entry partner: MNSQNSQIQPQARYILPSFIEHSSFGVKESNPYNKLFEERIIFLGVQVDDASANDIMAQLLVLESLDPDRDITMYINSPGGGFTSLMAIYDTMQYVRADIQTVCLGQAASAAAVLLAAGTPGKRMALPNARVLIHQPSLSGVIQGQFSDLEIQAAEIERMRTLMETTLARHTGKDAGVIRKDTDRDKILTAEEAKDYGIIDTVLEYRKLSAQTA
UniProt P9WNZ1, whole entry: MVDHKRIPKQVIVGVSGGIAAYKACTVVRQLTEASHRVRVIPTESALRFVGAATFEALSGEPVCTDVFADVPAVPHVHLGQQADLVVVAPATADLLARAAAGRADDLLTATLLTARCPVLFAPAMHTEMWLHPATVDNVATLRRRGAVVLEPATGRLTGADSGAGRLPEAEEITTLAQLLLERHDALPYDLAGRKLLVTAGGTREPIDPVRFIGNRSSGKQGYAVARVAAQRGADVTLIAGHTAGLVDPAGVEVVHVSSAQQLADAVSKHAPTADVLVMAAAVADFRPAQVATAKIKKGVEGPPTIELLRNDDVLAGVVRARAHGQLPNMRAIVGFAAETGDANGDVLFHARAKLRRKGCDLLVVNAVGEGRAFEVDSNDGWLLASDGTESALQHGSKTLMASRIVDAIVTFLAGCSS
UniProt Q8IDJ8, 1-583: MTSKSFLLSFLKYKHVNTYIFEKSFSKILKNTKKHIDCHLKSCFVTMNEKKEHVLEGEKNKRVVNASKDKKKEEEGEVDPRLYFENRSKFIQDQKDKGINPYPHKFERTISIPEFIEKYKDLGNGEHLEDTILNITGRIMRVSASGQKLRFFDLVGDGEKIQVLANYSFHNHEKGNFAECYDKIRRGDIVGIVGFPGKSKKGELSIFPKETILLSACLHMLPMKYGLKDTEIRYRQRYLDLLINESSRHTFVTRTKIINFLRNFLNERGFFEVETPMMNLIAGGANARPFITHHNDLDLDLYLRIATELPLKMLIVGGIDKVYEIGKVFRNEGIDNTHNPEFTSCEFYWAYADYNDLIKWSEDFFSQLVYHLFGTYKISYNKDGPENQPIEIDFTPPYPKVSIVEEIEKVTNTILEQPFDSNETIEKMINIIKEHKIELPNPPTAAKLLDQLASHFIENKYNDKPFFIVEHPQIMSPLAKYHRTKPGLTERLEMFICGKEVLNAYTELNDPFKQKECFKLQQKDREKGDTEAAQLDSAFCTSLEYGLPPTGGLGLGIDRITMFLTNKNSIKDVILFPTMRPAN
UniProt Q4DA54, 1-478: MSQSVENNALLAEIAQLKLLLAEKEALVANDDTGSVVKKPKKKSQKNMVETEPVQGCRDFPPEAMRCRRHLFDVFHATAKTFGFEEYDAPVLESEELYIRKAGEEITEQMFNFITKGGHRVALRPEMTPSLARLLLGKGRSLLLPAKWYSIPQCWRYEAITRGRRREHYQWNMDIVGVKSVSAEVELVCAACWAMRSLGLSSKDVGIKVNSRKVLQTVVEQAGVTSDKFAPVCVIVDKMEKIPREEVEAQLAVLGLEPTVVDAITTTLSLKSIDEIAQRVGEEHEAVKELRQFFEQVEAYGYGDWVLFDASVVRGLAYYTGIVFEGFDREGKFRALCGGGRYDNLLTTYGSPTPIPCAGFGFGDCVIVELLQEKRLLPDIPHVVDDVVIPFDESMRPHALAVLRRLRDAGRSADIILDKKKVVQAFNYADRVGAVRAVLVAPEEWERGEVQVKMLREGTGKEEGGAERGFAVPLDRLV
UniProt I6X8D2, whole entry: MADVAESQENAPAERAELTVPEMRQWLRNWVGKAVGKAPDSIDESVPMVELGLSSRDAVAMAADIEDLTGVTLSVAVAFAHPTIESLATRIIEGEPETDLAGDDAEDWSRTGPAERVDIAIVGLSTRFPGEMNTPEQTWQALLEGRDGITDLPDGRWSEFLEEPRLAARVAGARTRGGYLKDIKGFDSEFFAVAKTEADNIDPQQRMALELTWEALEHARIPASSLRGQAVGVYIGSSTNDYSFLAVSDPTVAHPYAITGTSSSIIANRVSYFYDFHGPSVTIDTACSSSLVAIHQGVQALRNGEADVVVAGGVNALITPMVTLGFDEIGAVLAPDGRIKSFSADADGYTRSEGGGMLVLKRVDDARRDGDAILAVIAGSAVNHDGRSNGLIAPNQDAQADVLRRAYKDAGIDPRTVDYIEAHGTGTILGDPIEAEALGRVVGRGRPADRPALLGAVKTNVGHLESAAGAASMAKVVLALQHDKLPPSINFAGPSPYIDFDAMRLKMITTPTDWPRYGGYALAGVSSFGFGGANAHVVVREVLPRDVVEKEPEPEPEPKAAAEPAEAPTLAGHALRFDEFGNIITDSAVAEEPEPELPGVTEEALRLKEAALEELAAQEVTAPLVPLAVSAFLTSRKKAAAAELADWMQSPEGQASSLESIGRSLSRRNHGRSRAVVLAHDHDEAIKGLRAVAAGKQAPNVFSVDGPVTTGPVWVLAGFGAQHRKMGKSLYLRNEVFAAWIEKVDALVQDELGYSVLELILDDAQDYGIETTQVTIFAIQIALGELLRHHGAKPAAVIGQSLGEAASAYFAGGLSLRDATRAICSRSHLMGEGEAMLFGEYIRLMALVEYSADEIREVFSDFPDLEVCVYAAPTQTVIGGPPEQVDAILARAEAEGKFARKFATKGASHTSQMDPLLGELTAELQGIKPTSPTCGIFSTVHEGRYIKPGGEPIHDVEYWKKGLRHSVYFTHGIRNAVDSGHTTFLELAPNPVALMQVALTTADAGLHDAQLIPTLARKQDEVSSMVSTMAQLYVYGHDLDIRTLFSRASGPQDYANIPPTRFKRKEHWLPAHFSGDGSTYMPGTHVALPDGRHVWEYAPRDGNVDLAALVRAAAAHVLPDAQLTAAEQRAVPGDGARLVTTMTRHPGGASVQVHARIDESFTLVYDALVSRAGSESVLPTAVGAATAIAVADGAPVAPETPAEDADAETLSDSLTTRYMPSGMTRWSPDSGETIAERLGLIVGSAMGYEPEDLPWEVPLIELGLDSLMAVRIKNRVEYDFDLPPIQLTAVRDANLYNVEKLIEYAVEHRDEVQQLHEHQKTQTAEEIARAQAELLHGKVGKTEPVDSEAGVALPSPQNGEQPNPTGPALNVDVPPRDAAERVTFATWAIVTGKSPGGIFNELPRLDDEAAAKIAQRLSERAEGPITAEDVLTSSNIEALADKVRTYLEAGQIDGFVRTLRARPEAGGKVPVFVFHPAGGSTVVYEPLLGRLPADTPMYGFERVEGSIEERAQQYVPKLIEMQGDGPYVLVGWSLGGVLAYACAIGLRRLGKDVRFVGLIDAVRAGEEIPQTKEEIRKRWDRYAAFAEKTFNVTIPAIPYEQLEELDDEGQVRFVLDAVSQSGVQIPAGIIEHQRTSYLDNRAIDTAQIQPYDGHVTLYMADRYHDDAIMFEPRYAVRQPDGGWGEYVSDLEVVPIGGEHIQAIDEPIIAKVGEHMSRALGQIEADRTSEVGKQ

Results are given as percent effect.
The controls that fix the scale are not given in the record; negative values are as filed.
Compounds were drawn at random from those tested, without regard to their results.

ClpP1P2: 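ClpP1P2, Mycobacterium tuberculosis (UniProt P9WPC5 and UniProt P9WPC3). Protease assay of ClpP1P2, read by the AMC dye that it sets free. Compounds at 50 µM. Higher reads as stronger inhibition, judged from the few compounds that gave an IC50. Most other retested compounds had strongly negative values. Size under these conditions: about 69,000 compounds, about 10 of them at 50% or above in at least one test.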
CoaBC: 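Enzyme assay of CoaBC with a phosphate dye (Biomol Green) read at 650 nm. Target: Coenzyme A biosynthesis protein CoaBC, Mycobacterium tuberculosis (UniProt P9WNZ1). Tested at 30 µM. Direction is inferred from only a few compounds that gave an IC50; most scored high, so higher reads as stronger inhibition. Most strong results did not repeat in a second test. Size under these conditions: about 67,000 compounds, about 40 of them at 50% or above in at least one test.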
PfKRS1: 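Enzyme assay of the cytosolic lysyl-tRNA synthetase in 384-well plates, read by luminescence. Target: Lysine-tRNA ligase, Plasmodium falciparum 3D7 (UniProt Q8IDJ8). Tested at 30 µM. Direction is inferred from only a few compounds that gave an IC50; most scored high, so higher reads as stronger inhibition. Size under these conditions: about 69,000 compounds, about 49 of them at 50% or above in at least one test.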
TcHisRS: 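Enzyme assay of histidyl-tRNA synthetase; the read-out is not stated. Target: Histidine-tRNA ligase, Trypanosoma cruzi CL Brener (UniProt Q4DA54). Compounds at 30 µM. The record gives no direction; compounds that gave an IC50 in retests scored well above the rest, so higher reads as stronger inhibition. Of about 69,000 compounds tested this way, about 31 (0.045%) reached 50% or more in at least one test.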
Pks13 thioesterase: 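Polyketide synthase Pks13, Mycobacterium tuberculosis (UniProt I6X8D2). Enzyme assay of the thioesterase domain of polyketide synthase 13; the read-out is not stated. Concentration: 30 µM. Higher reads as stronger inhibition (inferred from which compounds were picked for retests). Of about 67,000 compounds tested this way, about 300 (0.46%) reached 50% or more in at least one test.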

With CCc1nc(N2CCCC(CO)(CCOC)C2)ncc1C (stereo unspecified) the screen gave ClpP1P2: -6.59%; CoaBC: 2.781%; PfKRS1: 2.148%; TcHisRS: 3.247%; Pks13 thioesterase: -19.18%.
With COC(=O)c1ccccc1C(=O)N(CCN(C)C)Cc1sccc1C the screen gave ClpP1P2: -2.416%; CoaBC: -12.62%; PfKRS1: 5.313%; TcHisRS: 4.348%; Pks13 thioesterase: -21.26%.
With OC1(CNCc2noc(Cc3ccccc3)n2)CNCCOC1 (stereo unspecified) the screen gave ClpP1P2: 0.5026%; CoaBC: 10.15%; PfKRS1: -0.6961%; TcHisRS: 0%; Pks13 thioesterase: -17.73%.
With CCn1c(C2CCCN(C(=O)c3ccc[nH]3)C2)nn(CCN(C)C)c1=O (stereo unspecified) the screen gave ClpP1P2: 8.625%; CoaBC: 5.187%; PfKRS1: 8.151%; TcHisRS: 0.5025%; Pks13 thioesterase: -24.91%.
With O=C(N1CCOCC1)N1CCN(c2ccnc3ccsc23)CC1 the screen gave ClpP1P2: -2.732%; CoaBC: -3.667%; PfKRS1: 2.603%; TcHisRS: 5.155%; Pks13 thioesterase: -16.75%.
With CCOc1ccccc1CN(CC)Cc1ccc(S(C)(=O)=O)cc1 the screen gave ClpP1P2: -7.187%; CoaBC: -1.205%; PfKRS1: 0.01111%; TcHisRS: -2.128%; Pks13 thioesterase: 2.186%.
With Cc1cc(CN2CCN(CC(O)c3cccc(F)c3)CC2)no1 (stereo unspecified) the screen gave ClpP1P2: -11.29%; CoaBC: 3.937%; PfKRS1: 0.1184%; TcHisRS: 5.714%; Pks13 thioesterase: -0.4063%.
With Cc1n[nH]c2nc(-c3cc(Br)ccc3O)cc(C(=O)O)c12 the screen gave ClpP1P2: -4.446%; CoaBC: -0.3797%; PfKRS1: 4.603%; TcHisRS: 0%; Pks13 thioesterase: 19.08%.
With COCc1ccccc1CNCc1c(C(C)C)nn(C)c1N(C)C the screen gave ClpP1P2: -24.09%; CoaBC: 1.79%; PfKRS1: 1.681%; TcHisRS: 4.706%; Pks13 thioesterase: -13.12%.
With Cc1cc(NC(=O)C(C)Nc2ccn(Cc3ccccn3)n2)on1 (stereo unspecified) the screen gave ClpP1P2: 6.16%; CoaBC: -0.4073%; PfKRS1: 0.8243%; TcHisRS: 5.82%; Pks13 thioesterase: -4.172%.
With Brc1ccccc1-c1nnc(CNCCn2cccn2)o1 the screen gave ClpP1P2: -21.12%; CoaBC: -0.5249%; PfKRS1: -0.9734%; TcHisRS: 3.429%; Pks13 thioesterase: -12.85%.
With COCc1nc(C(=O)NS(=O)(=O)c2ccc(C)s2)cs1 the screen gave ClpP1P2: -2.795%; CoaBC: 2.332%; PfKRS1: 4.829%; TcHisRS: 1.527%; Pks13 thioesterase: -0.8411%.
With CCc1noc(CN(Cc2cccs2)CC2CCCO2)n1 (stereo unspecified) the screen gave ClpP1P2: 2.695%; CoaBC: 4.962%; PfKRS1: -2.523%; TcHisRS: 4.507%; Pks13 thioesterase: -6.799%.
With Cc1cccc(N2CCOC(C(=O)O)C2)c1 (stereo unspecified) the screen gave ClpP1P2: -6.907%; CoaBC: 1.112%; PfKRS1: -0.6837%; TcHisRS: 9.125%; Pks13 thioesterase: 4.805%.

The last 2 entries again:

| Compound | ClpP1P2 | CoaBC | PfKRS1 | TcHisRS | Pks13 thioesterase |
|---|---|---|---|---|---|
| `CCc1noc(CN(Cc2cccs2)CC2CCCO2)n1` (stereo unspecified) | 2.695% | 4.962% | -2.523% | 4.507% | -6.799% |
| `Cc1cccc(N2CCOC(C(=O)O)C2)c1` (stereo unspecified) | -6.907% | 1.112% | -0.6837% | 9.125% | 4.805% |

Measurements from “University of Dundee, Small-Polar-MMV Screening Library” (2021), ChEMBL document CHEMBL3988442.